{"source": "patent US9541834B2", "about": "“Ionic thermal acid generators for low temperature applications” (Rohm and Haas Electronic Materials LLC, priority 2012, dated 2017)", "test": "Chemical trim overcoat (CTO) trimming of resist pattern, CD shrink", "conditions": "developed in 2.38% TMAH for 12 s; for Final CD: 60 nm CTO film containing the TAG on 45 nm 1:1 line/space resist, baked at 70° C., No CTO 45.7 nm; for ΔCD: CD shrink versus No CTO, CTO film baked at 70° C."}
{"molecule": "3-Fluoropyridinium perfluorobutanesulfonate [3-Fluoropyridinium PFBuS]", "values": [{"measurement": "Final CD", "result": 26.4, "unit": "nm"}]}
{"molecule": "N.O=S(=O)(O)C(F)(F)C(F)(F)C(F)(F)C(F)(F)F", "note": "[Ammonium PFBuS, Ammonium perfluorobutanesulfonate]", "values": [{"measurement": "Final CD", "result": 45.8, "unit": "nm"}, {"measurement": "ΔCD", "result": -0.1, "unit": "nm"}, {"measurement": "ΔCD", "setting": "listed as ammonium TAG", "result": "no CD shrink"}]}
{"molecule": "Pyridazinium perfluorobutanesulfonate [Pyridazinium PFBuS]", "values": [{"measurement": "Final CD", "result": 40.6, "unit": "nm"}]}
